Residue numbers refer to the chain shown, from its start. No constants are given. Whether binding was seen depends on the method and setting. For some of these results: Binding calls can cover weak binding; strength is not graded here. For some of these results: Where a sequence is shown, tags or fusion partners need not be part of it. For some of these results: Binding seen in cells or lysates may run through a third protein.

By UniProt entry, the sequences of proteins in these tests, tags left out.
UniProt P62820: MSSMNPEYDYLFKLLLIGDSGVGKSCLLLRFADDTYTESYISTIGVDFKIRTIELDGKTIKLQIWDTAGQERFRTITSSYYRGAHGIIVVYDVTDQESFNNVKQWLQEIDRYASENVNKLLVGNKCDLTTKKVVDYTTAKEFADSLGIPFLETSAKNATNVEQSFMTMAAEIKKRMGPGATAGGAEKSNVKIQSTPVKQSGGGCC

The record followed here is publication PMC6331118.

The target in experiment [1] is T1, 6his-Rab38^WT (1–181) (UniProt P57729).
T1 sequence: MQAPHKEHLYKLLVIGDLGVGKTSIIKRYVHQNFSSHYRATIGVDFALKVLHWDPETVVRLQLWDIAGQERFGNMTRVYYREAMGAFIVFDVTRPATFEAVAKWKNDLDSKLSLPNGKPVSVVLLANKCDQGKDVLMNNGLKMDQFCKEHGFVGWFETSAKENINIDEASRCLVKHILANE
Description: pull-down; direct pull-down: 1 mg GppNHp- or GDP-bound 6his-Rab38 (1-181) mixed with 1 mg cleaved SNX6 PX domain, Ni-NTA agarose, 4°C, 15 min; 10 mM Tris pH 8, 300 mM NaCl, 10 mM imidazole, 5 mM MgCl2; SDS-PAGE; both purified.

The target of experiment [2] is T2, GST-Rab38 wt (UniProt P57729).
T2 sequence: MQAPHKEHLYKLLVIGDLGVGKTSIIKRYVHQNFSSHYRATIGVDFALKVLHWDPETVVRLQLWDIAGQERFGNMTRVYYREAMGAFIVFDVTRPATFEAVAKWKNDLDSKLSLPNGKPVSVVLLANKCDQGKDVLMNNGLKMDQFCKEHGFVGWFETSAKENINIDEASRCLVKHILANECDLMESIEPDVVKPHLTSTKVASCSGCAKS
Description: pull-down; 5 μg GST fusion on glutathione agarose (or GST-Trap) beads, incubated with IHKE-1 lysate overnight; blot against SNX6; only the target purified.

Experiment [3] addresses T3, GST-Rab32 wt (UniProt Q13637).
T3 sequence: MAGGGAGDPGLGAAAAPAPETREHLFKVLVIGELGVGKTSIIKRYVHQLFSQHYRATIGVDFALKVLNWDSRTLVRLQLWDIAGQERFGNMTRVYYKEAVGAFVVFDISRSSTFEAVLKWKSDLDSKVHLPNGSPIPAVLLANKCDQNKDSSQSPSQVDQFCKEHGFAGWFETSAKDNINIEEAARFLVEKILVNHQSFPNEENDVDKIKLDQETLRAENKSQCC
The description is as above.

The target of experiment [4] is T4, GST-Rab32 Q85L (UniProt Q13637).
T4 sequence: T3 sequence with Q85L
The experiment is described as above.

The target in experiment [5] is GST-Rab1A wt (UniProt P62820). The description is as above.
Experiment [6] concerns the target T5, GST-Rab38 Q69L (UniProt P57729).
T5 sequence: T2 sequence with Q69L
Described as above.

Experiment [7] has as its target T6, GFP-Rab32 wt (UniProt Q13637).
T6 sequence: T3 sequence
Description: co-IP; GFP-Trap kit; IHKE-1 lysate in 10 mM Tris pH 7.5, 150 mM NaCl, 0.5 mM EGTA, 0.5% NP40; blot against SNX6.

“SNX6 (PX domain, residues 1–193) (from UniProt Q9UNH7-1) (domain or fragment)”: the binding result in experiment [1] is “binds”.
Consider “endogenous SNX6 (IHKE-1 cells) (from UniProt Q9UNH7-1)”, for which the binding result in experiment [2] is recorded as “binds”; in experiment [3] it was “binds”; in experiment [4] it was “binds”; in experiment [5], “no binding”; in experiment [6], “binds”; in experiment [7], “binds”.
